At least one compound was matched to its structure with a doubt left.
Legend:
Format in all cases: in vivo, mouse
[1] = tested on: AKT (v-akt murine thymoma viral oncogene); experiment: Western blotting, protein phosphorylation of AKT; settings: compared to the HFD control group
[2] = tested on: olfactory receptors in liver tissue; experiment: OligoDNA microarray, liver tissue of HFD mice fed odor components
Text: The obesity-inducing control diet used in the test was high-fat diet (HFD: 40% fat calorie, 17 g lard+3% corn oil/100 g diet). Diets supplemented with an odor component had the same composition as HFD, except that each of various types of odor components (indol-3-carbinol, oleuropein, cedryl acetate, α-cedrene and piperine) having anti-obesity efficacy was contained in 0.02-0.05% concentration. Indo)-3-carbinol, oleuropein, cedryl acetate, a-cedrene and piperine were purchased from Sigma-Aldrich.
After adding Trizol agent to visceral fat or liver tissue, the mixture was homogenized and centrifuged at 12,000×g for 10 min at 4° C. The supernatant was transferred to a new tube to remove fat layer. Then, 200 μl of chloroform was added to the tube, followed by vortexing. The same procedure was repeated twice and then the supernatant was transferred to a new tube, followed by addition of isopropanol and the supernatant at 1:1 ratio. The mixture was vigorously shaken 10 times and then incubated for 10 min at room temperature, followed by centrifugation at 12,000×g for 10 min at 4° C. to remove the supernatant. After adding 1 mL of 70% ethanol to the remaining pellet, it was centrifuged at 7,500×g for 5 min at 4° C. After removing the ethanol, the RNA pellet contained in the tube was dried for 5 min at 4° C. and dissolved in nuclease-free water. The RNA sample concentration was measured at a wavelength of 260 nm and 280 nm using a UV/VIS spectrophotometer (Beckman coulter, DU730) and the integrity of RNA sample was verified by agarose gel electrophoresis.
DNA microarry analysis using RNAs of visceral fat and liver tissue was conducted by GENOCHECK (CO., LTD.). RNA samples were pooled from 10 mice in each experimental group and subjected to microarray experiments in triplicate for the test of reproducibility. NimbleGen Mouse Whole Oligo 12-plex chip used in this experiment was prepared by triplicating 42,576 genes using Mouse Genome Build 8 as database. In NimbleGen mouse Whole Oligo 12-plex chip, 137,090 spots excluded control group gene were spotted by 16 μm×16 μm size in 17.4 mm×13 mm size. 42,576 oligo included […] genes which are known their functions and 5,431 transcripts and EST sequences which are unknown their functions. 10-50 μg of total RNA was added in oligo-dT primer, reverse transcriptase, dNTP, Cy3-dUTP and Cy5-dUTP, and reverse-transcripted according to the kit manufacturer's recommendations. The resultant was purified using cartridge, dried and dissolved in hybridization buffer solution (30 μL). The microarray was placed in hybridization cassette, heated at 95-100° C. for 5 min, mixed independently to each of RNA labeled with Cy3 and Cy5, and hybridized at 45° C. for 18 hrs. The slide was washed twice in solution containing 1×SSC and 0.1% SDS for 5 min, washed in 1×SSC for 5 min and dried to analyze.
The profile for olfactory receptors in which the expression was regulated by more than 2-fold change due to intake of odor components at each tissue was shown in Tables 5. As a result, it was determined that various types of odor components having anti-obesity efficacy regulated a plurality of olfactory receptors in peripheral tissues.

[3] = tested on: HSL (hormone sensitive lipase); experiment: Western blotting, protein phosphorylation of HSL; settings: compared to the HFD control group
[4] = tested on: CREB (cAMP-responsive element binding protein); experiment: Western blotting, protein phosphorylation of CREB; settings: compared to the HFD control group
[5] = tested on: olfactory receptors in visceral fat tissue; experiment: OligoDNA microarray, visceral fat tissue of HFD mice fed odor components

For O=C(/C=C/C=C/c1ccc2c(c1)OCO2)N1CCCCC1 [piperine], the “phosphorylation of AKT” value [1] was “significantly increased”, the “expression of olfactory receptor 38” value [2] was “increased” and the “expression of olfactory receptor 77” value [2] was “decreased”. For the same compound, the “expression of olfactory receptor 878” value [2] was “increased”, the “phosphorylation of HSL” value [3] was “significantly increased” and the “phosphorylation of CREB” value [4] was “significantly increased”.

In the case of C/C=C1/[C@H](O[C@@H]2O[C@H](CO)[C@@H](O)[C@H](O)[C@H]2O)OC=C(C(=O)OC)[C@H]1CC(=O)OCCc1ccc(O)c(O)c1 [oleuropein], the “expression of olfactory receptor 290” value [5] is reported as “increased”, the “expression of olfactory receptor 341” value [5] is reported as “decreased” and the “expression of olfactory receptor 1104” value [5] is reported as “increased”. The “phosphorylation of AKT” value [1] was “significantly increased”, the “expression of olfactory receptor 38” value [2] was “increased” and the “expression of olfactory receptor 275” value [2] was “increased”. The “expression of olfactory receptor 878” value [2] was “increased”, the “phosphorylation of HSL” value [3] was “significantly increased” and the “phosphorylation of CREB” value [4] was “significantly increased”.

— US10167507B2, “Metabolic diseases-related odorant receptor genes and use thereof” (INDUSTRY-ACADEMIC COOPERATION FOUNDATION, YONSEI UNIVERSITY, priority 2010, dated 2019)
